According to article doi:10.1101/2022.05.05.490787:
Where two headings read alike, the source gives them in different places. No constants are given. Whether binding was seen depends on the method and setting. For some assays here: Binding seen in cells or lysates may run through a third protein. Some results given as binding are weak or reduced against the parent protein; the word gives no strength. For some assays here: Where a sequence is shown, tags or fusion partners need not be part of it.

Chains of the proteins cited; added tags and fusions are not shown. Residues count along the entry.
UniProt Q8IX90, whole entry: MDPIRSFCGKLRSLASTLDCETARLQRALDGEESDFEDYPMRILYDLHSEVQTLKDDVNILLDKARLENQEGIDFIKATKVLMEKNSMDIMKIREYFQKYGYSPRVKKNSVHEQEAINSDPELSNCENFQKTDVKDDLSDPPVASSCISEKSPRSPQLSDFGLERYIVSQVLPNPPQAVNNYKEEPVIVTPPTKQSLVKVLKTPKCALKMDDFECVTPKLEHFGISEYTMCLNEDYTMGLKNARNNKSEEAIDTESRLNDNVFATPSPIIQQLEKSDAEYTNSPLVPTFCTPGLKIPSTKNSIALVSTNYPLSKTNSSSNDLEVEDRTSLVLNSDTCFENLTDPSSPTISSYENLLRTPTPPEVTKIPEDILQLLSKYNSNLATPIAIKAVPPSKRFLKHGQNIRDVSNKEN
UniProt Q96BD8, whole entry: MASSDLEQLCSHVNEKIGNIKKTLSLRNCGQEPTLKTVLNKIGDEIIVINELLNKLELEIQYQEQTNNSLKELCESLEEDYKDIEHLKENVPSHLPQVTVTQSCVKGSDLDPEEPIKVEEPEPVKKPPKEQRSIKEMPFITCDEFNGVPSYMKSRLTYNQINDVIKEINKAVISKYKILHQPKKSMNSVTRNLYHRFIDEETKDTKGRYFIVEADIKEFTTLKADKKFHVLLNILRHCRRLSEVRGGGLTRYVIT
UniProt P02769, 25-607: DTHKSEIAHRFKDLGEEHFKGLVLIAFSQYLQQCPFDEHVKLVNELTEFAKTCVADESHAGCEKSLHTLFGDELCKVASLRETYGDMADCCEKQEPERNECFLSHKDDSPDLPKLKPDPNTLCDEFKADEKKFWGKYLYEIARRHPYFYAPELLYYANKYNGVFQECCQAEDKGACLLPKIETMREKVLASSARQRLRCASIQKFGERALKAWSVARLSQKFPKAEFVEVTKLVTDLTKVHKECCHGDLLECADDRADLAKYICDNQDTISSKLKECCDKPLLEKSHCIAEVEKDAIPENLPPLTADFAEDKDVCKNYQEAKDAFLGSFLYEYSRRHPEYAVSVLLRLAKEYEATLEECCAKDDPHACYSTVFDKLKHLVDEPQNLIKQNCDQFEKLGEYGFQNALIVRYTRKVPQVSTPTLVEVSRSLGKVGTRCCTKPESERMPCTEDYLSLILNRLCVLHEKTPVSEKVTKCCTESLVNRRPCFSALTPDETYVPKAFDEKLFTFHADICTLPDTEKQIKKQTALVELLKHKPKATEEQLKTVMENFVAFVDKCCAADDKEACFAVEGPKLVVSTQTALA

T1: GFP-tagged Cdt1 (92-546 a. a.) (human) (UniProt Q9H211)
T1 sequence: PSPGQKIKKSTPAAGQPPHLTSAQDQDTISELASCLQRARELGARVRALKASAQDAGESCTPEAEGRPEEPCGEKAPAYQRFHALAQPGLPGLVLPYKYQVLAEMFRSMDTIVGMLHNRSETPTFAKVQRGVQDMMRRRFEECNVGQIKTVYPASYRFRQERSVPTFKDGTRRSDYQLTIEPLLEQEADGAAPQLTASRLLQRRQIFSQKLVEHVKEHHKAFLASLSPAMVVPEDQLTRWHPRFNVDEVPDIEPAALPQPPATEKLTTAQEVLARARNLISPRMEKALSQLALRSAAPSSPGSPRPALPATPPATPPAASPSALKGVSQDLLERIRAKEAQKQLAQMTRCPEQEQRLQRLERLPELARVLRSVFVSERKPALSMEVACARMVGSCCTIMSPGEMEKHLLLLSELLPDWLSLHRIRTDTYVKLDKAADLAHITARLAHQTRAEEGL

T2: GST-tagged Cdt1^92-546 (human) (UniProt Q9H211)
T2 sequence: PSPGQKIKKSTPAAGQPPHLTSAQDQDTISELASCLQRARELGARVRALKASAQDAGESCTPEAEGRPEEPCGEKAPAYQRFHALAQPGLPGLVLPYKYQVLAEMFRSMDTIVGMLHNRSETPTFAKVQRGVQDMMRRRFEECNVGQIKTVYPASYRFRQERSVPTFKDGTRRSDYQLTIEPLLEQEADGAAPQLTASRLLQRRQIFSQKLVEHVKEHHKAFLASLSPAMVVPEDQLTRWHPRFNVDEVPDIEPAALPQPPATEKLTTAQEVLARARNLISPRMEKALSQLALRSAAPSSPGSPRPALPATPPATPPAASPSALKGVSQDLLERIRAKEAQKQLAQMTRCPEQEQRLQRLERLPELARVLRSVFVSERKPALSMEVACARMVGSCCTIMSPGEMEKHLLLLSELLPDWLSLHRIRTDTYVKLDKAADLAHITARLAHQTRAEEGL

T3: HA/His-tagged Cdt1 (human) (UniProt Q9H211)
T3 sequence: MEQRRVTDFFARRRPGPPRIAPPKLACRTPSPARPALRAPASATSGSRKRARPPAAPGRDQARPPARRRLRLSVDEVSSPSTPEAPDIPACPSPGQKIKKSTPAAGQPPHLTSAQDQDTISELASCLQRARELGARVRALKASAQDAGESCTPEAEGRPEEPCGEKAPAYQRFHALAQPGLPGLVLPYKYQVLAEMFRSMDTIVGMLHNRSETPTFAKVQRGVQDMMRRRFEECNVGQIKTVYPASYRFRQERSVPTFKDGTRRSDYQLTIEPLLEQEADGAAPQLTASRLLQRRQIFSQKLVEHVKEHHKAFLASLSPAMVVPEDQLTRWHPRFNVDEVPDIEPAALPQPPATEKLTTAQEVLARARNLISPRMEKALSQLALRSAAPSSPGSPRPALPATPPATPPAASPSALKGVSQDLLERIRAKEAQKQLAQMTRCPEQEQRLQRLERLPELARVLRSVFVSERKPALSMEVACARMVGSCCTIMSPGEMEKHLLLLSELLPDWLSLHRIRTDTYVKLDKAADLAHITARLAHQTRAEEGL

T4: Cdt1 (endogenous) (human (endogenous in HeLa)) (UniProt Q9H211)
T4 sequence: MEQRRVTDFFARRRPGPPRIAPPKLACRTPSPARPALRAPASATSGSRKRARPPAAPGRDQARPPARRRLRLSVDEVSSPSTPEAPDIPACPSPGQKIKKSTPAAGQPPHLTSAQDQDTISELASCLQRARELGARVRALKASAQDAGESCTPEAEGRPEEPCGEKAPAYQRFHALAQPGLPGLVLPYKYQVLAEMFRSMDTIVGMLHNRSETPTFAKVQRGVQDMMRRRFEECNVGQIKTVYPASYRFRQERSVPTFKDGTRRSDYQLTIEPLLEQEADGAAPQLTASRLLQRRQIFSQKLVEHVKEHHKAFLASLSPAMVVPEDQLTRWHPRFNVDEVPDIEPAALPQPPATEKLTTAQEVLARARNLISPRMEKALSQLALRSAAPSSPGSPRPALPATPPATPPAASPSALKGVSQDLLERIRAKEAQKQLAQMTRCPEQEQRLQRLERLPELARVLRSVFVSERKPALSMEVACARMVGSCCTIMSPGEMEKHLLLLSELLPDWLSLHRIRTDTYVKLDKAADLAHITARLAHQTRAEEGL

T5: HA-tagged Cdt1-WT (human) (UniProt Q9H211)
T5 sequence: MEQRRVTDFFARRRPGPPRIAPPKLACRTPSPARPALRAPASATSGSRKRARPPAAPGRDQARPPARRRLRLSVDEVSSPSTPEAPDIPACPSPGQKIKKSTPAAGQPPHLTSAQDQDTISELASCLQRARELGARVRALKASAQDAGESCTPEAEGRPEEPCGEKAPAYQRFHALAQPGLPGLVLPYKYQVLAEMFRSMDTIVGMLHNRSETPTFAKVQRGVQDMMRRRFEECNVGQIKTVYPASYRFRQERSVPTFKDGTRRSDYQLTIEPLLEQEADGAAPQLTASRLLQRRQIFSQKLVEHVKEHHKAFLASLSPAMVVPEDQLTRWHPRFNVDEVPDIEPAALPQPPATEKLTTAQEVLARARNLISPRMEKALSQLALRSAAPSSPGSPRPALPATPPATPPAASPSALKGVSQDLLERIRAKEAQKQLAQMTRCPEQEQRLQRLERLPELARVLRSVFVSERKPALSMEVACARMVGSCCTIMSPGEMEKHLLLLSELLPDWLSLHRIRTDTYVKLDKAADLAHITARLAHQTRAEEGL


Columns and labels:
[1] = biological target: T1, GFP-tagged Cdt1 (92-546 a. a.) (human); test: far-Western, overlay or dot blot
[2] = biological target: T2, GST-tagged Cdt1^92-546 (human); test: pull-down
[3] = biological target: T3, HA/His-tagged Cdt1 (human); test: pull-down
[4] = biological target: T4, Cdt1 (endogenous) (human (endogenous in HeLa)); test: co-IP
[5] = biological target: T5, HA-tagged Cdt1-WT (human); test: co-IP
[6] = biological target: T1, GFP-tagged Cdt1 (92-546 a. a.) (human); test: SEC
[7] = biological target: SKA3 (endogenous) (human (endogenous in HeLa and HEK293T)) (UniProt Q8IX90); test: co-IP
[8] = biological target: T1, GFP-tagged Cdt1 (92-546 a. a.) (human); test: BLI
[9] = biological target: SKA3 (endogenous) (human (endogenous in HeLa and HEK293T)) (UniProt Q8IX90); test: co-IP; remark: listed apart in the source
GFP-SKA1 = GFP-SKA1 (UniProt Q96BD8); test: co-IP

Molecule	binding [2]	binding [3]	binding [4]	binding [5]	further results
Ska1 complex assembled by combining equimolar His-tagged SKA1/2 and GST-tagged SKA3 (from UniProt Q96BD8;Q8WVK7;Q8IX90)					binding [1]: binds
SKA3 (endogenous) (from UniProt Q8IX90 1-412)	binds	binds	binds	binds	
dimeric SKA1/SKA2 complex (from UniProt Q96BD8;Q8WVK7)					binding [6]: binds
SKA1 (endogenous) (from UniProt Q96BD8 1-255)	binds	binds	binds	binds	binding [7]: binds
BSA (from UniProt P02769 25-607)					binding [8]: no binding
Cdt1 (endogenous) (protein, UniProt Q9H211 1-546) MEQRRVTDFFARRRPGPPRIAPPKLACRTPSPARPALRAPASATSGSRKRARPPAAPGRDQARPPARRRLRLSVDEVSSPSTPEAPDIPACPSPGQKIKKSTPAAGQPPHLTSAQDQDTISELASCLQRARELGARVRALKASAQDAGESCTPEAEGRPEEPCGEKAPAYQRFHALAQPGLPGLVLPYKYQVLAEMFRSMDTIVGMLHNRSETPTFAKVQRGVQDMMRRRFEECNVGQIKTVYPASYRFRQERSVPTFKDGTRRSDYQLTIEPLLEQEADGAAPQLTASRLLQRRQIFSQKLVEHVKEHHKAFLASLSPAMVVPEDQLTRWHPRFNVDEVPDIEPAALPQPPATEKLTTAQEVLARARNLISPRMEKALSQLALRSAAPSSPGSPRPALPATPPATPPAASPSALKGVSQDLLERIRAKEAQKQLAQMTRCPEQEQRLQRLERLPELARVLRSVFVSERKPALSMEVACARMVGSCCTIMSPGEMEKHLLLLSELLPDWLSLHRIRTDTYVKLDKAADLAHITARLAHQTRAEEGL					binding [9]: binds; binding (GFP-SKA1): binds
